Results taken from US20100144755A1 (Glaxo Group Limited, priority 2006, published 2010).
Some results were stated once for a whole list of compounds, not compound by compound.

By UniProt entry, the sequences of proteins in these tests, tags left out.
UniProt Q16539, whole entry: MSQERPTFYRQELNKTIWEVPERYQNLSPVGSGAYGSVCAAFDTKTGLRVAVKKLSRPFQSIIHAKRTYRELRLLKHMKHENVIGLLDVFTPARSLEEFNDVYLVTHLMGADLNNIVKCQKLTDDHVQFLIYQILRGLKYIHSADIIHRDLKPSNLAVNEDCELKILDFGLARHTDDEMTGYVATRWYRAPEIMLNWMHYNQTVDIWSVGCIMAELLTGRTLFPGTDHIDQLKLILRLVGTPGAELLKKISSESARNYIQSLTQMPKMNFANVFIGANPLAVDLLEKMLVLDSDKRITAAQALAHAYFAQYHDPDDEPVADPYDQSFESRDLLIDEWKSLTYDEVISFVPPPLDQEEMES

Tests used:
[1] = tested on: TNF-stimulated IL8 production by human neutrophils; assay: TNF-stimulated IL-8 production from human neutrophils; assay type: cell-based; settings: TNF 100 ng/ml, about 20 hrs, screened up to 100 nM; result in words;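 further: IL-8 in cell-free supernatant quantified by sandwich ELISA, inhibition calculated against a compound-free control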
Recombinant human p38α = biological target: T1, Recombinant human p38α (Homo sapiens, UniProt Q16539); assay: Time-resolved fluorescence resonance energy transfer (TR-FRET) kinase assay (standard and low volume); assay type: biochemical; design: key: active: a pIC50 of greater than 4.6 up to about a pIC50 of greater than 10.0; settings: MKK6-activated p38α 100 pM, GST-ATF2 substrate; result in words
T1 construct: His; made in house

SMILES	activity (IC50) against TNF-stimulated IL-8 production from human neutrophils [1]	activity (pIC50) in TR-FRET p38α kinase assay (Recombinant human p38α)
Cc1ccc(C(=O)NC2CC2)cc1-c1nc(N2CCC(N3CCC(C)CC3)CC2)nc2c1ccc(=O)n2-c1c(F)cccc1F [Example 178, N-cyclopropyl-3-[8-(2,6-difluorophenyl)-2-(4-methyl-1,4′-bipiperidin-1′-yl)-7-oxo-7,8-dihydropyrido[2,3-d]pyrimidin-4-yl]-4-methylbenzamide]	active	active
CCN(CC)CCCNc1nc(-c2cc(C(=O)NC)cc(F)c2C)c2ccc(=O)n(-c3c(F)cccc3F)c2n1 [Example 180, 3-[2-{[3-(diethylamino)propyl]amino}-8-(2,6-difluorophenyl)-7-oxo-7,8-dihydropyrido[2,3-d]pyrimidin-4-yl]-5-fluoro-N,4-dimethylbenzamide]	active	active
CCCNC(=O)c1cc(F)c(C)c(-c2nc(NCCCN(CC)CC)nc3c2ccc(=O)n3-c2c(F)cccc2F)c1 [Example 181, 3-[2-{[3-(diethylamino)propyl]amino}-8-(2,6-difluorophenyl)-7-oxo-7,8-dihydropyrido[2,3-d]pyrimidin-4-yl]-5-fluoro-4-methyl-N-propylbenzamide]	active	active
CCN(CC)CCCNc1nc(-c2cc(C(=O)Nc3ccc(F)cc3)cc(F)c2C)c2ccc(=O)n(-c3c(F)cccc3F)c2n1 [Example 182, 3-[2-{[3-(diethylamino)propyl]amino}-8-(2,6-difluorophenyl)-7-oxo-7,8-dihydropyrido[2,3-d]pyrimidin-4-yl]-5-fluoro-N-(4-fluorophenyl)-4-methylbenzamide]	active	active
CCN(CC)CCCNc1nc(-c2cc(C(=O)Nc3nccs3)cc(F)c2C)c2ccc(=O)n(-c3c(F)cccc3F)c2n1 [Example 183, 3-[2-{[3-(diethylamino)propyl]amino}-8-(2,6-difluorophenyl)-7-oxo-7,8-dihydropyrido[2,3-d]pyrimidin-4-yl]-5-fluoro-4-methyl-N-1,3-thiazol-2-ylbenzamide]	active	active
CCN(CC)CCCNc1nc(-c2cc(C(=O)Nc3ccccc3)cc(F)c2C)c2ccc(=O)n(-c3c(F)cccc3F)c2n1 [Example 184, 3-[2-{[3-(diethylamino)propyl]amino}-8-(2,6-difluorophenyl)-7-oxo-7,8-dihydropyrido[2,3-d]pyrimidin-4-yl]-5-fluoro-4-methyl-N-phenylbenzamide]	active	active
CCN(CC)CCCNc1nc(-c2cc(C(=O)NC3CC3)cc(F)c2C)c2ccc(=O)n(-c3c(F)cccc3F)c2n1 [Example 185, N-cyclopropyl-3-[2-{[3-(diethylamino)propyl]amino}-8-(2,6-difluorophenyl)-7-oxo-7,8-dihydropyrido[2,3-d]pyrimidin-4-yl]-5-fluoro-4-methylbenzamide]	active	active
CCN(CC)CCCNc1nc(-c2cc(C(=O)NC3CCCC3)cc(F)c2C)c2ccc(=O)n(-c3c(F)cccc3F)c2n1 [Example 186, N-cyclopentyl-3-[2-{[3-(diethylamino)propyl]amino}-8-(2,6-difluorophenyl)-7-oxo-7,8-dihydropyrido[2,3-d]pyrimidin-4-yl]-5-fluoro-4-methylbenzamide]	active	active
CCN(CC)CCCNc1nc(-c2cc(C(=O)NC(C)(C)C)cc(F)c2C)c2ccc(=O)n(-c3c(F)cccc3F)c2n1 [Example 187, 3-[2-{[3-(diethylamino)propyl]amino}-8-(2,6-difluorophenyl)-7-oxo-7,8-dihydropyrido[2,3-d]pyrimidin-4-yl]-N-(1,1-dimethylethyl)-5-fluoro-4-methylbenzamide]	active	active
CCCNC(=O)c1cccc(-c2nc(NCCCN(CC)CC)nc3c2ccc(=O)n3-c2c(F)cccc2F)c1 [Example 194, 3-[2-{[3-(diethylamino)propyl]amino}-8-(2,6-difluorophenyl)-7-oxo-7,8-dihydropyrido[2,3-d]pyrimidin-4-yl]-N-propylbenzamide]	active	active
CCN(CC)CCCNc1nc(-c2cccc(C(=O)NC(C)C)c2)c2ccc(=O)n(-c3c(F)cccc3F)c2n1 [Example 195, 3-[2-{[3-(diethylamino)propyl]amino}-8-(2,6-difluorophenyl)-7-oxo-7,8-dihydropyrido[2,3-d]pyrimidin-4-yl]-N-(1-methylethyl)benzamide]	active	active
CCN(CC)CCCNc1nc(-c2cccc(C(=O)Nc3ccc(F)cc3)c2)c2ccc(=O)n(-c3c(F)cccc3F)c2n1 [Example 196, 3-[2-{[3-(diethylamino)propyl]amino}-8-(2,6-difluorophenyl)-7-oxo-7,8-dihydropyrido[2,3-d]pyrimidin-4-yl]-N-(4-fluorophenyl)benzamide]	active	active
CCN(CC)CCCNc1nc(-c2cccc(C(=O)Nc3nccs3)c2)c2ccc(=O)n(-c3c(F)cccc3F)c2n1 [Example 197, 3-[2-{[3-(diethylamino)propyl]amino}-8-(2,6-difluorophenyl)-7-oxo-7,8-dihydropyrido[2,3-d]pyrimidin-4-yl]-N-1,3-thiazol-2-ylbenzamide]	active	active
CCN(CC)CCCNc1nc(-c2cccc(C(=O)Nc3ccccc3)c2)c2ccc(=O)n(-c3c(F)cccc3F)c2n1 [Example 198, 3-[2-{[3-(diethylamino)propyl]amino}-8-(2,6-difluorophenyl)-7-oxo-7,8-dihydropyrido[2,3-d]pyrimidin-4-yl]-N-phenylbenzamide]	active	active
CCN(CC)CCCNc1nc(-c2cccc(C(=O)NC(C)(C)C)c2)c2ccc(=O)n(-c3c(F)cccc3F)c2n1 [Example 199, 3-[2-{[3-(diethylamino)propyl]amino}-8-(2,6-difluorophenyl)-7-oxo-7,8-dihydropyrido[2,3-d]pyrimidin-4-yl]-N-(1,1-dimethylethyl)benzamide]	active	active
CCN(CC)CCCNc1nc(-c2cccc(C(=O)NC3CCCC3)c2)c2ccc(=O)n(-c3c(F)cccc3F)c2n1 [Example 200, N-cyclopentyl-3-[2-{[3-(diethylamino)propyl]amino}-8-(2,6-difluorophenyl)-7-oxo-7,8-dihydropyrido[2,3-d]pyrimidin-4-yl]benzamide]	active	active
